This passage reports AC50 results from PubChem BioAssay AID493014 (National Center for Advancing Translational Sciences (NCATS), 2011).

The structures appear in SMILES notation. Some of the results follow. Further columns of the screen follow, without active or inactive calls. The list favours compounds with an active or inconclusive main result. Words in brackets tell the shape of the fitted curve; partial curves, single points and poor fits give uncertain potencies.

The experiment can be described thus: qHTS Assay to Find Inhibitors of Chronic Active B-Cell Receptor Signaling. The note with it: ABC-DLBCL IkBa-CBG/CBR reporter, luminescence ratio (green luciferase fused to IkBa over red control in TMD8 lymphoma cells), 4 h. In outline:
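TMD8 ABC-DLBCL cells carrying doxycycline-inducible green luciferase fused to IkappaBalpha plus unfused red luciferase were exposed to compounds (up to 46 uM) for 4 hrs at 37C. Activity came from the overlap-corrected green/red luminescence ratio.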

Where [1] appears, read: measured here: CBR red luminescence, cell number.
Setting [2] is: measured here: IkBa-CBG green luminescence.

On to `COc1ccc(/C=N/NC(=O)c2ccc(C)nc2)cc1O`, for which the AC50 under setting [1] is 10 µM [falling, partial curve, poor fit].
On the same count and under the same terms, the value for `Nc1ccc(NC(=O)c2cccs2)cc1` was 35.5 µM [falling, single point].
On the same count and under the same terms, then `O=c1[nH]c2cc3c(cc2cc1CN(CCc1ccccc1)Cc1nnnn1C1CCCC1)OCCO3`, with 10 µM [falling, partial curve, poor fit]; and `O=C(Nc1ccc(C(=O)O)cc1)Nc1ccc(F)cc1F`, with 7.08 µM [falling, partial curve]; and `Clc1ccc(-c2cnc3n2CCC3)cc1`, with 0.355 µM [falling, full curve, poor fit].
As to `Cc1ccccc1OCC(=O)Nc1sc2c(c1C#N)CC(C)(C)NC2(C)C`, the AC50 under setting [1] was 12.6 µM [falling, partial curve, poor fit].
The same measure, in the same setting: then `O=C(NCCc1c[nH]c2ccccc12)c1ccc2nc[nH]c2c1`, with 29.1 µM [falling, single point].
With `O=C(c1ccc(Br)o1)N1CCN(c2ncccn2)CC1`, under setting [1], the AC50 was 23.1 µM [rising, single point].
With `O=C(Nc1ccncc1)c1cc2ccccc2cc1O`, under setting [1], the AC50 was 4.11 µM [falling, full curve].
For the compound `Cc1ccc(-c2nc(NCc3ccco3)n(C(=O)c3ccco3)n2)cc1`, the AC50 under setting [1] is 2.82 µM [rising, partial curve, poor fit].
As to `CCCCCCOC(=O)C[N+](C)(C)CCOC1CC2CCC1(C)C2(C)C` (stereo not given), the AC50 under setting [1] was 14.6 µM [falling, partial curve] and the AC50 under setting [2] is 32.6 µM [rising, partial curve, poor fit].
Regarding `CN(CC(=O)Nc1ccc(Cl)cc1)CC(=O)Nc1cccc2ccccc12`, the AC50 under setting [1] was 32.6 µM [falling, single point].
On the same count and under the same terms, the value for `CCOC(=O)c1ccc(N2CCN(C(=O)c3ccccc3)CC2)c(NC(=O)c2ccco2)c1` was 22.4 µM [falling, single point]; that for `O=C(Nc1nc(-c2cc(Cl)sc2Cl)cs1)c1ccccc1` was 32.6 µM [falling, single point]; that for `C/C(=N\OCc1cccc(C(=O)O)c1)c1ccc(Cl)cc1` was 1.12 µM [falling, full curve, poor fit].
Still for that read-out and setting: the value for `CCCCn1c(NCc2cccs2)nc2ccccc21` was 35.5 µM [falling, single point]; that for `COc1cccc(NC(=O)COC(=O)c2c3c(nc4ccccc24)CCC(C)C3)c1` (stereo not given) was 12.6 µM [falling, partial curve, poor fit].
Take `COc1ccc(-c2cccc(-c3cc(=O)oc4cc(OC)cc(OC)c34)c2)cc1`: the AC50 by setting is: under setting [1], 1.16 µM [rising, full curve, poor fit]; under setting [2], 1.64 µM [falling, full curve].
Regarding `CC(=O)Nc1cccc(C(=O)N/N=C/c2ccc(C)o2)c1`, the AC50 under setting [1] was 5.62 µM [falling, full curve].
The same measure, in the same setting: then `O=C(Cc1sc(-c2ccccc2)nc1-c1ccccc1)Nc1ccccc1`, with 7.31 µM [rising, partial curve]; and `CCNS(=O)(=O)c1ccc(NC(=O)Nc2cc(C)ccc2OC)cc1`, with 35.5 µM [falling, single point]; and `S=C(Nc1ccccc1)N1CCn2cccc2C1c1cccnc1` (stereo not given), with 29.1 µM [falling, single point].
`CCOc1cc(NC(=S)NCC2CCCO2)c(OCC)cc1NC(=O)c1ccccc1F` (stereo not given): the AC50 under setting [1] was 35.5 µM [falling, single point].
The same measure, in the same setting: the value for `Cc1cccc(Nc2nc(-c3ccccc3)c(C(=O)Nc3cccnc3)s2)c1` was 14.6 µM [falling, partial curve, poor fit].
Still for that read-out and setting: the value for `Cc1ccccc1Oc1cc(NC(=O)Cn2cnc([N+](=O)[O-])c2)cc([N+](=O)[O-])c1` was 15.8 µM [falling, single point]; that for `CCCCc1ccc(NC(=O)CC(C)C)cc1` was 35.5 µM [falling, single point]; that for `O=C(Cn1ncc(Cl)c(Cl)c1=O)NC1CCCCC1` was 11.6 µM [falling, partial curve].
On the same count and under the same terms, the value for `CCOC(=O)c1ccccc1NC(=O)COC(=O)CCC(=O)N1CCOCC1` was 2.51 µM [falling, full curve].
As to `CCOC(=O)c1sc(NC(=O)CSc2n[nH]c(CC(C)C)n2)nc1C`, the AC50 under setting [1] was 20.6 µM [falling, single point].
Still for that read-out and setting: then `CCOc1ccc(N2CC(C(=O)Nc3cccc(S(=O)(=O)NC4=NCCC4)c3)CC2=O)cc1` (stereo not given), with 0.794 µM [rising, full curve, poor fit]; and `COc1ccccc1C(=O)N1CCN(Cc2ccc3c(c2)OCO3)CC1`, with 16.4 µM [falling, single point].
The same measure, in the same setting: then `Cc1cccc(N2CCN(C(=O)Cn3cccc3)CC2)c1C`, with 2.06 µM [rising, partial curve, poor fit]; and `Cc1ccc(N2C(=O)C3C4C=CC(CNC(=S)Nc5ccc(Cl)cc5)(O4)C3C2=O)cc1` (stereo not given), with 18.4 µM [falling, single point]; and `CCOC(=O)NC(=O)/C(C=Nc1ccc(Cl)cc1)=C(\C)O`, with 7.94 µM [rising, partial curve, poor fit].
`CCOC(=O)c1c(C)[nH]c(C)c1C(=O)COC(=O)c1c(OC)cccc1OC`: under setting [1], the AC50 is 6.51 µM [rising, single point].
Same read-out and setting: the value for `CC(=O)N=c1cccc(NC(C)=O)n1O` was 32.6 µM [falling, single point]; that for `O=C1CC(C(=O)Nc2ccc(F)c(Cl)c2)N=C(N2CCCCC2)N1` (stereo not given) was 6.51 µM [falling, single point]; that for `CCOc1ccc(CC(=O)N/N=C/c2sccc2C)cc1` was 4.47 µM [rising, single point].
`CCNC(=S)N(CCc1c(C)[nH]c2ccc(C)cc12)Cc1cccnc1`: under setting [1], the AC50 was 35.5 µM [falling, single point].
Same read-out and setting: then `Cc1ccc(NC(=S)NC2CCSc3ccccc32)cc1C` (stereo not given), with 5.62 µM [falling, partial curve].
The same measure, in the same setting: the value for `CCOC(=O)c1ccc(NC(=O)C2CCN(C(=O)c3ccc(OC)c(OC)c3)CC2)cc1` was 0.146 µM [rising, full curve].
The same measure, in the same setting: the value for `CC1(C)CC(=O)C(N=Nc2ccc(Br)cc2)=C(O)C1` was 35.5 µM [rising, single point]; that for `Cc1ccc(OC(C)c2nnc(N)s2)cc1Cl` (stereo not given) was 20.6 µM [falling, partial curve, poor fit].
As to `C=CCOc1ccc(/C=C/C(=O)Nc2ccc(C(=O)NC)cc2)cc1`, the AC50 under setting [1] was 18.4 µM [rising, partial curve, poor fit].
The same measure, in the same setting: the value for `CCCCN(C(=O)CSc1nncn1-c1ccccc1OC)c1c(N)n(Cc2ccccc2)c(=O)[nH]c1=O` was 35.5 µM [falling, single point]; that for `O=C(Cn1c(-c2cscn2)nc2ccccc21)Nc1ccc2ccccc2c1` was 0.708 µM [falling, partial curve, poor fit].
On the same count and under the same terms, the value for `CCOC(=O)C1CCN(C(=O)COC(=O)c2oc3ccc(OC)cc3c2C)CC1` was 29.1 µM [rising, single point].
The same measure, in the same setting: then `CCn1c(SCc2nc3ccccc3s2)nnc1-c1ccccc1`, with 5.8 µM [rising, full curve, poor fit]; and `CC(=O)N1N=C(c2ccc3ccccc3c2)OC12CCCC2`, with 31.6 µM [rising, single point].
In the case of `COc1cccc(NC(=O)[C@H](Cc2ccccc2)NC(=O)[C@@H]2Cc3ccccc3CN2)c1`, the AC50 under setting [1] was 8.91 µM [falling, partial curve, poor fit].
For `N#Cc1c(NC(=S)NC(=O)c2ccccc2)sc2c1CCCC2`, under setting [1], the AC50 was 0.206 µM [rising, full curve, poor fit].
`Cc1cccc(-c2noc(CCCC(=O)NC3CCCCC3)n2)c1`: the AC50 under setting [1] was 4.47 µM [rising, full curve] and the AC50 under setting [2] is 5.62 µM [rising, partial curve, poor fit].
Turning to `COc1ccc(NC(=O)COC(=O)c2ccc(S(=O)(=O)N3CCCC3)cc2)cc1OC`, the AC50 under setting [1] is 2.31 µM [falling, partial curve].
The same measure, in the same setting: the value for `O=[N+]([O-])c1cccc(/C([O-])=C(/C(=S)Nc2cccc3ccccc23)[n+]2ccccc2)c1` was 1.64 µM [falling, partial curve, poor fit].
Take `CN(C)CCN(C(=O)/C=C/c1cccs1)c1nc2c(F)cc(F)cc2s1`: under setting [1], the AC50 is 20.6 µM [falling, single point].
For `COc1ccc(C)cc1NC(=O)Nc1ccncc1`, the AC50 under setting [1] was 14.1 µM [rising, single point].
On to `CCNC(=O)/C(C#N)=C/c1c(N2CCN(C)CC2)nc2c(C)cccn2c1=O`, for which, under setting [1], the AC50 is 20 µM [falling, single point].
Same read-out and setting: the value for `CCS(=O)(=O)c1ccc(C(=O)Nc2ccccc2)c(Cl)c1Cl` was 11.2 µM [falling, partial curve, poor fit].
Consider `C[C@H]1O[C@@H](O[C@H]2CC[C@@]3(C)C(CC[C@]4(C)C3C=C[C@]35OC[C@@]6(CCC(C)(C)C[C@H]63)[C@@H](O)C[C@]54C)[C@]2(C)CO)[C@H](O)[C@@H](O[C@@H]2O[C@H](CO)[C@@H](O)[C@H](O)[C@H]2O)[C@H]1O` (stereo not given in full), for which, under setting [1], the AC50 is 20.6 µM [rising, single point].
Take `O=C(c1cccs1)C1C(c2ccc(Br)cc2)NC(=S)NC1(O)C(F)(F)F` (stereo not given): the AC50 under setting [1] is 18.4 µM [falling, partial curve, poor fit].
Same read-out and setting: then `CCOc1ccc(/C=C/c2c([N+](=O)[O-])c(=O)n(C)c(=O)n2C)cc1`, with 35.5 µM [falling, single point]; and `CC1CC(C)CN(c2ncc3c(n2)CC(c2ccccc2Cl)CC3=O)C1` (stereo not given), with 1.84 µM [rising, partial curve, poor fit].

One may read the AC50 as the concentration giving half of the maximal activity seen.
